Data from patent US20070196377A1.
No constants are given. Whether binding was seen depends on the method and setting. In cells and extracts the contact can be indirect. Some results given as binding are weak or reduced against the parent protein; the word gives no strength. Tags and fused reporters may be left off the sequences shown.

Protein sequences, listed by entry. Tags and fused reporters are not part of them. Lines headed by an entry give the natural chain unless they say otherwise; changes in a name come on top.
UniProt P60766: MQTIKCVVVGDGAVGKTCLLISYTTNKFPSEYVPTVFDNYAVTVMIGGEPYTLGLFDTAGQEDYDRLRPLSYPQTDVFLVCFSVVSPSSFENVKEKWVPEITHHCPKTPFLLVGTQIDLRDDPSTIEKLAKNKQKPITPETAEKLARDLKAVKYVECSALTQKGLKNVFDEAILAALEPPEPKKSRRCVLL

Assays:
[1] = target: RhoA expressed as an N-terminal GST-fusion protein (Canis lupus familiaris (Dog) (Canis familiaris)) (UniProt P24406); test: GST pull-down, anti-FLAG Western blot
[2] = target: Cdc42 expressed as an N-terminal GST-fusion protein (Mus musculus (Mouse)) (UniProt P60766); test: GST pull-down, anti-FLAG Western blot
[3] = target: RhoA expressed as an N-terminal GST-fusion protein (Canis lupus familiaris (Dog) (Canis familiaris)) (UniProt P24406); test: GST pull-down, anti-FLAG Western blot (FIG. 2)
[4] = target: Cdc42 expressed as an N-terminal GST-fusion protein (Mus musculus (Mouse)) (UniProt P60766); test: GST pull-down, anti-FLAG Western blot (FIG. 2)

binding [1]: binds
binding [2]: binds
binding [3]: binds
binding [4]: binds
B1: hj03796 DH/PH (C-terminal FLAG-tagged protein) (protein, not shown: small tags and cut ends)
chain: MKLSYLGRVVREIVETERMYVQDLRSIVEDYLLKIIDTPGLLKPEQVSALFGNIENIYALNSQLLRDLDSCNSDPVAVASCFVERSQEFDIYTQYCNNYPNSVAALTECMRDKQQAKFFRDRQELLQHSLPLGSYLLKPVQRILKYHLLLQEIAKHFDEEEDGFEVVEDAIDTMTCVAWYINDMKRRHEHAVRLQEIQSLLINWKGPDLTTYGELVLEGTFRVHRVRNERTFFLFDKTLLITKKRGDHFVYKGNIPCSSLMLIESTRDSLCFTVTHYKHSKQQYSIQAKTVEEKRNWTHHIKRLILENHHATIPQKAKEAILEMDSYYPNRYRCSPERLKKAWSSQDEVSTNVRQGRRQSEPTKHL
